Source: article doi:10.1101/491274
Results are given in words; binding and its absence hold for the method and conditions named. In cells and extracts the contact can be indirect. For part of these data: Tags and fused reporters may be left off the sequences shown.

Chains of the proteins cited; added tags and fusions are not shown. Lines headed by an entry give the natural chain unless they say otherwise; changes in a name come on top.
UniProt Q659C4: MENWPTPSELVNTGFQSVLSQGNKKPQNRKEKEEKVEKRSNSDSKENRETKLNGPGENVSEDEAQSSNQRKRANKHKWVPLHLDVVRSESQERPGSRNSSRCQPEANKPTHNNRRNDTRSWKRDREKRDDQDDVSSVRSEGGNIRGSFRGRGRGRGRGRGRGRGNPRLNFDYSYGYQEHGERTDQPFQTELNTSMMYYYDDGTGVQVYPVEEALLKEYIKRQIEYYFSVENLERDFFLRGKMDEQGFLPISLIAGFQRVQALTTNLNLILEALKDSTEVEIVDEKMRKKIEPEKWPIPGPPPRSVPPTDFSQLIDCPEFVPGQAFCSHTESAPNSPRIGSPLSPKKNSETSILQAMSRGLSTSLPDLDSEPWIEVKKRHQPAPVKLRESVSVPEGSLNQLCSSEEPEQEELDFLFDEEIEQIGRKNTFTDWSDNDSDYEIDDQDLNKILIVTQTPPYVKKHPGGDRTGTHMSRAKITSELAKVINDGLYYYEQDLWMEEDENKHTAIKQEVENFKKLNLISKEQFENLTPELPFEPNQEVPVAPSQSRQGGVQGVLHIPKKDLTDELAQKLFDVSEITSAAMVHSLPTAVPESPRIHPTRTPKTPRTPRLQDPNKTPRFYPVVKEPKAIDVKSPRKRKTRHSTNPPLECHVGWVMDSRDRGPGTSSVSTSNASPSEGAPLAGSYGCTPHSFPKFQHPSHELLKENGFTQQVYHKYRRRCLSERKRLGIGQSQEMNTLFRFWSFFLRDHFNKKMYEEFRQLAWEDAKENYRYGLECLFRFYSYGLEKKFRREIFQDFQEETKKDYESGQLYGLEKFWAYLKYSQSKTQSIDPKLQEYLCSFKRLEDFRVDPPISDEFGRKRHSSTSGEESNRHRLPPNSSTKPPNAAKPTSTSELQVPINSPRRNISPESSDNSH
UniProt Q71RC2: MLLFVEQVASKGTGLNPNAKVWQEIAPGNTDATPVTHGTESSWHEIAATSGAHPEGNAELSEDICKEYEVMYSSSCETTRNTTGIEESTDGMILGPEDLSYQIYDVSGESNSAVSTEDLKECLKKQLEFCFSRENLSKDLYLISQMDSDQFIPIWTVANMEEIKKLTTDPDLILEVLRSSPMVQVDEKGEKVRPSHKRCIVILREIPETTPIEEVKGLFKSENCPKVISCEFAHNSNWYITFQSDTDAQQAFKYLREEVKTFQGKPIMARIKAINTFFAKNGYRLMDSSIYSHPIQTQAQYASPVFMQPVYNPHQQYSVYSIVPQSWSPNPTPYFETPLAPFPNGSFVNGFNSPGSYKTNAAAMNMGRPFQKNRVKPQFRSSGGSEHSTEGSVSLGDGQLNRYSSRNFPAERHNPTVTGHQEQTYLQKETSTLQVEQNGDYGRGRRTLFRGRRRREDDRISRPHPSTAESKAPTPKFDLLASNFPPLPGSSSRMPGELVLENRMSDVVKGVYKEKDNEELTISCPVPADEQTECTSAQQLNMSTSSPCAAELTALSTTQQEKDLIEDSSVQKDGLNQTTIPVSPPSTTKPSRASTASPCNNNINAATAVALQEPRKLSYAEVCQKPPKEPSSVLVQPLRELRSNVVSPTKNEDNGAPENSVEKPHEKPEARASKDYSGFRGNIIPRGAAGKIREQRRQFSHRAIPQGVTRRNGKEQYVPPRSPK
UniProt Q92615: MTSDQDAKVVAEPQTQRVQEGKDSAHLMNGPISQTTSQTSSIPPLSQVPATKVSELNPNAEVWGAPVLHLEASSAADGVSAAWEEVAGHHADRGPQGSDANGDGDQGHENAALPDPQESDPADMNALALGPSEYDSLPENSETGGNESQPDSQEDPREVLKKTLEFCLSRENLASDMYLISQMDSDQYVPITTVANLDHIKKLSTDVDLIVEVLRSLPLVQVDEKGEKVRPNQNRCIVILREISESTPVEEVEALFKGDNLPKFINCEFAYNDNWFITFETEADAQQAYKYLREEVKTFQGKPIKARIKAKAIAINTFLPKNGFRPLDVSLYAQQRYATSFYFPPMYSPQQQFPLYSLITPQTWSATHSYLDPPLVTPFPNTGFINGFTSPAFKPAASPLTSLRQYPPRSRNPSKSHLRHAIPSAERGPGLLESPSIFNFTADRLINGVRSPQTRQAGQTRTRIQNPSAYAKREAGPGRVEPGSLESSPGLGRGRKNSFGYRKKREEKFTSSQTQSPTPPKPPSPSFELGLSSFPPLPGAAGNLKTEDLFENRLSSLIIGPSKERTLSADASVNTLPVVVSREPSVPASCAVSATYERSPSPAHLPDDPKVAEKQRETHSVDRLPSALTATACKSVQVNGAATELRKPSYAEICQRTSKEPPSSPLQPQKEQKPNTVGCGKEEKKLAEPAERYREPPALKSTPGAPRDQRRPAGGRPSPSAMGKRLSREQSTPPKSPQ
UniProt Q8N122: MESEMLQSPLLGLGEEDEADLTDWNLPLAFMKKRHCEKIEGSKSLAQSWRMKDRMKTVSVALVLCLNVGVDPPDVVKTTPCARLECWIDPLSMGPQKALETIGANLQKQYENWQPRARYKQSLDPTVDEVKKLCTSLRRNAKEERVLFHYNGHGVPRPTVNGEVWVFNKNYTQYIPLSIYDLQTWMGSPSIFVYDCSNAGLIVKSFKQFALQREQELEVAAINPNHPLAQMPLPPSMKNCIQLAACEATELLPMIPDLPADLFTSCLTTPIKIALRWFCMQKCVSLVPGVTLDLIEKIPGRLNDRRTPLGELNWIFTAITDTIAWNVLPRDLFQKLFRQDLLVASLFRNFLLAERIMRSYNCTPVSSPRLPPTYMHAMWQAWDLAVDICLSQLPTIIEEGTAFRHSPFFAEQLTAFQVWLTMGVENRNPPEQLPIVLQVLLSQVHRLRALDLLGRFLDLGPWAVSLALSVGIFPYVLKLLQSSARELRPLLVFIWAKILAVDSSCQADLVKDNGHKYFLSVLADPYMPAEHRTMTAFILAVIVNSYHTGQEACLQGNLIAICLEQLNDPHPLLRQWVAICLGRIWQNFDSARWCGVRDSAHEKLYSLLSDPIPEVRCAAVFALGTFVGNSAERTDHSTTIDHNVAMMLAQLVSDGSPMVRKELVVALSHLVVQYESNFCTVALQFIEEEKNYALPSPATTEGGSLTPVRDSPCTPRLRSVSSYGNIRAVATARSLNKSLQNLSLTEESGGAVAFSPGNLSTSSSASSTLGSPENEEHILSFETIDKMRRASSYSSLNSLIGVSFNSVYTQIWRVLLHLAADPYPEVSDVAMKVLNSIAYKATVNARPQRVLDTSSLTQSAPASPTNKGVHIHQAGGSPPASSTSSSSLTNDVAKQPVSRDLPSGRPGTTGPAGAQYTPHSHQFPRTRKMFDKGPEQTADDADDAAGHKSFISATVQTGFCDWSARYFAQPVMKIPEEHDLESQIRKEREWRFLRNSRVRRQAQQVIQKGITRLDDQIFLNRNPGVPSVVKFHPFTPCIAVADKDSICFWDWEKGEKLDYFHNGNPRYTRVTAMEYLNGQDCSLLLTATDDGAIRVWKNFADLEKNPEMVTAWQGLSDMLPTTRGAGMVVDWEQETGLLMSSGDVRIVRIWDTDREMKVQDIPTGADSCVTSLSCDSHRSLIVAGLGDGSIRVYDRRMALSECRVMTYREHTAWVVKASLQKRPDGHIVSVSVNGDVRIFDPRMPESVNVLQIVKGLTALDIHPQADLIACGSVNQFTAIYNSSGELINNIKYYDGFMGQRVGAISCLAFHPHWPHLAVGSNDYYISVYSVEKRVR

What was measured:
Test in all cases: co-IP
[1] = molecular target: T1, human wildtype LARP6 (precipitated with anti-FLAG antibody) (human) (UniProt Q9BRS8)
T1 sequence: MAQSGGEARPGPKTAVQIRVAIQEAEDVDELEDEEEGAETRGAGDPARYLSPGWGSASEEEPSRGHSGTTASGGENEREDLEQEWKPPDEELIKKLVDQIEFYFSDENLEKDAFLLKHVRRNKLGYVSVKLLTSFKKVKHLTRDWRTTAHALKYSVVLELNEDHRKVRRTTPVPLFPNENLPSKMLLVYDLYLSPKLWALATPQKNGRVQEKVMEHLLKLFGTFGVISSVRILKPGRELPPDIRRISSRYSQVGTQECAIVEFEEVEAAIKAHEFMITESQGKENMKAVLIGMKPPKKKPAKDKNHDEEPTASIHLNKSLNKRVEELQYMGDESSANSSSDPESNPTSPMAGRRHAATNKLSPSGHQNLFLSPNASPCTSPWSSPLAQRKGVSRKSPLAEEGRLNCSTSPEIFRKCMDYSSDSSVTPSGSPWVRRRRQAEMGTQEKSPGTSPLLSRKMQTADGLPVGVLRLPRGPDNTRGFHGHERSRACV

[2] = molecular target: T2, FLAG-tagged human wildtype La (human) (UniProt P05455)
T2 sequence: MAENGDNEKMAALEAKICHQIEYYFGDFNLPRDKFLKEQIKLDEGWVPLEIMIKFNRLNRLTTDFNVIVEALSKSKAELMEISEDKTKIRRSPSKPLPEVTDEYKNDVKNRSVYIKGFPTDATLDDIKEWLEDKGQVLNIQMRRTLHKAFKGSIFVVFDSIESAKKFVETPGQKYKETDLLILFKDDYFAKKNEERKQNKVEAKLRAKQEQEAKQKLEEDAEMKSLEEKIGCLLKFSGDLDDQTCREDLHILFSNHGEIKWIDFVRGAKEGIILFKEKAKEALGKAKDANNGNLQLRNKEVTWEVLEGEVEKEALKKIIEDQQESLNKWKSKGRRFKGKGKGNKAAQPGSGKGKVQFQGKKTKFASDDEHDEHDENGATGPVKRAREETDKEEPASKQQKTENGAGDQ

[3] = molecular target: human LARP2 R790L/E791D (FRREI replaced by the FRLDI sequence) (human) (UniProt Q659C4)
[4] = molecular target: FLAG-tagged human wildtype LARP4 (human) (UniProt Q71RC2)
[5] = molecular target: FLAG-tagged human wildtype LARP5 (human) (UniProt Q92615)
[6] = molecular target: T3, human wildtype LARP7 (precipitated with anti-FLAG antibody) (human) (UniProt Q4G0J3)
T3 sequence: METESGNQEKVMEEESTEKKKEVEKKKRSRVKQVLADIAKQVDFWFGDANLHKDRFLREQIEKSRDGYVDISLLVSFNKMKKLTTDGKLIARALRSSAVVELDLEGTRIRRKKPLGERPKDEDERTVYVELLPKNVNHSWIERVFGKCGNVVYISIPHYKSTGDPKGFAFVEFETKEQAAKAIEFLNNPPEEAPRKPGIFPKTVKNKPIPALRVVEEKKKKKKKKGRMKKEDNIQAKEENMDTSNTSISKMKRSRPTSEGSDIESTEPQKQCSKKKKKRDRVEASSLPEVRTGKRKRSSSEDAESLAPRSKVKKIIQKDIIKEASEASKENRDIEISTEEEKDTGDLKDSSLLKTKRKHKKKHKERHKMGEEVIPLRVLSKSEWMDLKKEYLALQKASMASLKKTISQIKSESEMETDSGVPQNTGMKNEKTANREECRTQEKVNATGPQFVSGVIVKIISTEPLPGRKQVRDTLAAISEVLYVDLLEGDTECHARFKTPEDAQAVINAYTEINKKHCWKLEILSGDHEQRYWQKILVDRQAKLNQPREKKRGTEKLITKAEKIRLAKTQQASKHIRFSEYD

Measured: binding

endogenous RAPTOR (regulatory associated protein of mTOR) (from UniProt Q8N122 1-1335)
no binding: all assays above
